# The other results are listed elsewhere or left out.
# By UniProt entry, the sequences of proteins in these tests, tags left out.
# UniProt Q0JBA9, entry or part of it: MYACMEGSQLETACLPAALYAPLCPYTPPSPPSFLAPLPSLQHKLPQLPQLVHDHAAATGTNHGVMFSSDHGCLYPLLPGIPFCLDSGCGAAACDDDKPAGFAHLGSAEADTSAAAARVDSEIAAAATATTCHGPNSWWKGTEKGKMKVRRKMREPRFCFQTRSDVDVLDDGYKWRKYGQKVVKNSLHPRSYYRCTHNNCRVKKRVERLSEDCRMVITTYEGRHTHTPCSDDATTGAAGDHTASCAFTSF
# Biological target: OsWRKY34 (Oryza sativa, UniProt Q0JBA9 1-250)
# Experiment: protein-binding microarray (RPBM); PBS, 2% BSA, 51.3 ng/ul salmon testes DNA, 50 uM zinc acetate, 200 nM TF, 25 C, 1 h; high values mean tight binding
# Conditions: protein: recombinant; tags: N-terminal polyhistidine and DsRed monomer fusion (pET32a); label: CyDye5-dUTP incorporated in the synthesized complementary strand; 3' TTTTT single-stranded linker to array surface; dsDNA, one strand shown
# Summary of the method: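 An Axon 4000B scanner gave the binding signal as per-feature fluorescence intensity in arbitrary units. This followed washing of a custom Agilent array that had been incubated for 1 h at 25 °C with 200 nM protein in PBS, 2% BSA, salmon testes DNA and 50 µM zinc acetate. The proteins were transcription factors fused at the N-terminus to polyhistidine and DsRed, expressed in E. coli BL21-CodonPlus and purified on Ni–NTA.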
row,Sequence,binding signal
1,CCGAAATTGTGAACCCTGAGCTAGTCAGTCCCATCCTTTTCGGAGTCACCTAGTGCAG,8070 fluorescence intensity (a.u.)
2,ACCACCACCACCACCGCCCGCCAAGCGCGGCCCGCCCGACCGGAGTCACCTAGTGCAG,8720 fluorescence intensity (a.u.)
3,AACATGCTTAATTTCCACTTGACACTCTTCTTCAGACCTGCGGAGTCACCTAGTGCAG,11400 fluorescence intensity (a.u.)
4,CCTGCCAATCTACCATACATGCACCACTGCTCCACCGCCACGGAGTCACCTAGTGCAG,9880 fluorescence intensity (a.u.)
5,CTAAAGCGATTGCACATTCCTTACAATATTTCTGTTGTTCCGGAGTCACCTAGTGCAG,12200 fluorescence intensity (a.u.)
6,AAGCAGCTACACTCTTGAGATCTCTTGCTACGATTCTTCACGGAGTCACCTAGTGCAG,8600 fluorescence intensity (a.u.)
7,GCTCGATCCATTTAGGTAATTACTGCTCAACTAGCGATGACGGAGTCACCTAGTGCAG,8620 fluorescence intensity (a.u.)
8,CGATCCCTTCTAGGCCCTAGAATTTACTTGGGCCATTCATCGGAGTCACCTAGTGCAG,8540 fluorescence intensity (a.u.)
9,GGTTTGTCGTTCAGATTTGGATTAGTTCGAGGGTTTCGTGCGGAGTCACCTAGTGCAG,8520 fluorescence intensity (a.u.)
10,ACTTTTTATTTTTTTTCCTTTGAGTAGTCAAAAGCAACATCGGAGTCACCTAGTGCAG,9230 fluorescence intensity (a.u.)
11,CTTCCGGTTCTTTTTCTCAATCGCTTGATTCTCATCCTGTCGGAGTCACCTAGTGCAG,10500 fluorescence intensity (a.u.)
12,AACCTCCAACCTTTTAATTTCTCACGCGACCATGCACGACCGGAGTCACCTAGTGCAG,8820 fluorescence intensity (a.u.)
13,AAATCAACCACTCTTATCCCATCCGTCCATCCACCCTCTCCGGAGTCACCTAGTGCAG,10800 fluorescence intensity (a.u.)
14,AATTAGTTATTATCTCTTCTTCTTCCTTGGTTCAGTTTCCCGGAGTCACCTAGTGCAG,9030 fluorescence intensity (a.u.)
15,TTCTTGGGGTGTTCTTGACTGGAAGGTTTCTTTGGTGATGCGGAGTCACCTAGTGCAG,8130 fluorescence intensity (a.u.)
16,TCACGGCTCATTTTTGAAATAAGTTTTTAGCACAGTTTATCGGAGTCACCTAGTGCAG,8740 fluorescence intensity (a.u.)
17,TCTCTTTCTATTGCCCTGTGATTCTTTCTTTCATCGTCGTCGGAGTCACCTAGTGCAG,11100 fluorescence intensity (a.u.)
18,ACTTCACATTCACCTTGCACAACCTGTTGCCTTACTTCTTCGGAGTCACCTAGTGCAG,10400 fluorescence intensity (a.u.)
19,CTCTCTTCTCTTCTCCACGTCATCATTTAGCCGATTTATACGGAGTCACCTAGTGCAG,11700 fluorescence intensity (a.u.)
20,TGAAGCGTCCCTTTTTTATCCAATGGTCACTACATATTTTCGGAGTCACCTAGTGCAG,8930 fluorescence intensity (a.u.)
21,GGTCAATATATATTTCTTTTTCATGGTTGTCATCACTCCTCGGAGTCACCTAGTGCAG,13000 fluorescence intensity (a.u.)
22,GGTTTGGTGGCGGAAAAGGTGGAGGCCTAGGTGGTGGTGGCGGAGTCACCTAGTGCAG,8660 fluorescence intensity (a.u.)
23,GAATGGGCCACGTCACTGTTCACTCCTGGTCCCATTCCATCGGAGTCACCTAGTGCAG,8150 fluorescence intensity (a.u.)
24,GCATTGGTTGGTGGTTTGGTGACGGCTTCGTTGTAGGCCTCGGAGTCACCTAGTGCAG,9760 fluorescence intensity (a.u.)
25,ATATAGTTGGGGTGATCACAGGTTGCGAATTGCATAATGTCGGAGTCACCTAGTGCAG,8820 fluorescence intensity (a.u.)
26,CATTTTACGGTCAAGCATGTTTAAAAAAGTCAACGGCGAACGGAGTCACCTAGTGCAG,13700 fluorescence intensity (a.u.)
27,GGTGCTCGTGTTCTAGCTCTGCTTCGATGGAGTAATCATGCGGAGTCACCTAGTGCAG,9070 fluorescence intensity (a.u.)

# Some values from the results shown:
# Value of GGTGCTCGTGTTCTAGCTCTGCTTCGATGGAGTAATCATGCGGAGTCACCTAGTGCAG under binding signal: 9070 fluorescence intensity (a.u.)
# Value of CTTCCGGTTCTTTTTCTCAATCGCTTGATTCTCATCCTGTCGGAGTCACCTAGTGCAG under binding signal: 10500 fluorescence intensity (a.u.)
# Value of ACCACCACCACCACCGCCCGCCAAGCGCGGCCCGCCCGACCGGAGTCACCTAGTGCAG under binding signal: 8720 fluorescence intensity (a.u.)

# Following part.

row,Sequence,binding signal
1,GCAGTGGTGGGGAGAAGTTAGTCGCCATGCGATCATTAGACGGAGTCACCTAGTGCAG,8320 fluorescence intensity (a.u.)
2,ACTGTCCCACTGTCCCACCCACCCACCACTCAACGGCTCACGGAGTCACCTAGTGCAG,8780 fluorescence intensity (a.u.)
3,TGGGTGGTTGGAGCGCGATACAAGGATTGGGCATTTTGGACGGAGTCACCTAGTGCAG,9360 fluorescence intensity (a.u.)
4,GTCACCTTTTCTTTTATCAACATTCATTTGTTTTATTACTCGGAGTCACCTAGTGCAG,8270 fluorescence intensity (a.u.)
5,CTCGCTCTTGACGGCATTGCCCGTTCTTGGTATTTCAATTCGGAGTCACCTAGTGCAG,9460 fluorescence intensity (a.u.)
6,ACCCTTATGTCACAAGCTGCCGCTACACAGATTCGCCTCACGGAGTCACCTAGTGCAG,8580 fluorescence intensity (a.u.)
7,TTGTAAGTTTGTGTGTAGGAAAGTTTTGATGTGAGGAAAACGGAGTCACCTAGTGCAG,9150 fluorescence intensity (a.u.)
8,TATCCTCTTATAGTTTTCTGGTGTGGAATTCTGTCTTGTACGGAGTCACCTAGTGCAG,9930 fluorescence intensity (a.u.)
9,ACACCTACTGCTCACTCCGGCCAACCTAGCTAGCTTCCTCCGGAGTCACCTAGTGCAG,12100 fluorescence intensity (a.u.)
10,ATGTCGTGGTGGCACTGCGCGAAGGGGAGGGAGCCGAGCTCGGAGTCACCTAGTGCAG,8670 fluorescence intensity (a.u.)
11,CAAAGTCTCGCCATTTTCTCCTCCGTTTTGTTTTTTTTTTCGGAGTCACCTAGTGCAG,9960 fluorescence intensity (a.u.)
12,GCTCTCGCCTCGCGGCTCTGCCCGCCGTTTCGCCCCAAAACGGAGTCACCTAGTGCAG,8600 fluorescence intensity (a.u.)
13,CGCCCCACCATCCGCGTATTCGGCCGCTCCGCCGTCCAGGCGGAGTCACCTAGTGCAG,8950 fluorescence intensity (a.u.)
14,ACTTGTCAGCGAATTCGATTTTCGTCCTTAACCCCAAAACCGGAGTCACCTAGTGCAG,8280 fluorescence intensity (a.u.)
15,AAACACACTCAGTATCCGTCTCGCTCTCCTGCCTCGCCGCCGGAGTCACCTAGTGCAG,10300 fluorescence intensity (a.u.)
16,GATGAGTGGTCAAACATTGGTTAAAAAGTCAACGGCGTCACGGAGTCACCTAGTGCAG,12800 fluorescence intensity (a.u.)
17,ATTCCACTGGGTCGGGTCCCCTAAGCCGCCAGCGCGCGCGCGGAGTCACCTAGTGCAG,9200 fluorescence intensity (a.u.)
18,AAAACACGCCATGGTCATCGACGAACCGCCTGTCCATTTCCGGAGTCACCTAGTGCAG,8370 fluorescence intensity (a.u.)
19,CGCTCAATGACCGGTTGATGCCCTAGCCGCCAAACCTTGCCGGAGTCACCTAGTGCAG,9300 fluorescence intensity (a.u.)
20,GCTGTTCCTTTTCCAAACCGTACCGAACCTTTGGCATATTCGGAGTCACCTAGTGCAG,10100 fluorescence intensity (a.u.)
21,GCTTGTTGAGGTTTCACTGTATTCACATTTTTTAATTTGTCGGAGTCACCTAGTGCAG,8670 fluorescence intensity (a.u.)
22,TTATTTTGTGATTACTATCTCTCCGTTCATGTTTCTATCTCGGAGTCACCTAGTGCAG,16400 fluorescence intensity (a.u.)
23,TGGGTGGGACCTCACCACCGGGCTCGACCGCTACCTGACGCGGAGTCACCTAGTGCAG,8250 fluorescence intensity (a.u.)
24,CCGCTGATCCGGTCAGAAACCTCCAGTCTCTTGGCTCTGCCGGAGTCACCTAGTGCAG,9220 fluorescence intensity (a.u.)
25,GTCGATTCTCCACTCCTCATTTTTCTCACGATTTCCCCTTCGGAGTCACCTAGTGCAG,9800 fluorescence intensity (a.u.)
26,TTGTTTAGTAGTACCATTTATTGGTTGATTTTGATTGCTTCGGAGTCACCTAGTGCAG,8120 fluorescence intensity (a.u.)
27,TTCTTCCACTTAAGCTGAACTATATATTCAATTCAATATACGGAGTCACCTAGTGCAG,8580 fluorescence intensity (a.u.)

# Reference: PMC7819943, “Rice protein-binding microarrays: a tool to detect cis-acting elements near promoter regions in rice”
